In assay [1] the target is insulin-like growth factor-1 receptor (IGF-1R) (mouse (endogenous in βTC3)) (UniProt Q60751). As to the kind of experiment: co-IP; lysates of WT or GRP94 knock-down βTC3 cells (1% NP-40, 150 mM NaCl, 20 mM Tris-HCl pH 7.5); 0.5-1 mg lysate with rabbit anti-GRP94 or rabbit anti-IGF-1R antibody overnight at 4 °C, Protein A agarose, five washes; immunoblot for IGF-1R and GRP94. For orientation: A western blot detects proteins with antibodies after separation by electrophoresis.

Protein sequences, listed by entry. Tags and fused reporters are not part of them. Residues count along the entry.
UniProt Q60751, residues 31-1373: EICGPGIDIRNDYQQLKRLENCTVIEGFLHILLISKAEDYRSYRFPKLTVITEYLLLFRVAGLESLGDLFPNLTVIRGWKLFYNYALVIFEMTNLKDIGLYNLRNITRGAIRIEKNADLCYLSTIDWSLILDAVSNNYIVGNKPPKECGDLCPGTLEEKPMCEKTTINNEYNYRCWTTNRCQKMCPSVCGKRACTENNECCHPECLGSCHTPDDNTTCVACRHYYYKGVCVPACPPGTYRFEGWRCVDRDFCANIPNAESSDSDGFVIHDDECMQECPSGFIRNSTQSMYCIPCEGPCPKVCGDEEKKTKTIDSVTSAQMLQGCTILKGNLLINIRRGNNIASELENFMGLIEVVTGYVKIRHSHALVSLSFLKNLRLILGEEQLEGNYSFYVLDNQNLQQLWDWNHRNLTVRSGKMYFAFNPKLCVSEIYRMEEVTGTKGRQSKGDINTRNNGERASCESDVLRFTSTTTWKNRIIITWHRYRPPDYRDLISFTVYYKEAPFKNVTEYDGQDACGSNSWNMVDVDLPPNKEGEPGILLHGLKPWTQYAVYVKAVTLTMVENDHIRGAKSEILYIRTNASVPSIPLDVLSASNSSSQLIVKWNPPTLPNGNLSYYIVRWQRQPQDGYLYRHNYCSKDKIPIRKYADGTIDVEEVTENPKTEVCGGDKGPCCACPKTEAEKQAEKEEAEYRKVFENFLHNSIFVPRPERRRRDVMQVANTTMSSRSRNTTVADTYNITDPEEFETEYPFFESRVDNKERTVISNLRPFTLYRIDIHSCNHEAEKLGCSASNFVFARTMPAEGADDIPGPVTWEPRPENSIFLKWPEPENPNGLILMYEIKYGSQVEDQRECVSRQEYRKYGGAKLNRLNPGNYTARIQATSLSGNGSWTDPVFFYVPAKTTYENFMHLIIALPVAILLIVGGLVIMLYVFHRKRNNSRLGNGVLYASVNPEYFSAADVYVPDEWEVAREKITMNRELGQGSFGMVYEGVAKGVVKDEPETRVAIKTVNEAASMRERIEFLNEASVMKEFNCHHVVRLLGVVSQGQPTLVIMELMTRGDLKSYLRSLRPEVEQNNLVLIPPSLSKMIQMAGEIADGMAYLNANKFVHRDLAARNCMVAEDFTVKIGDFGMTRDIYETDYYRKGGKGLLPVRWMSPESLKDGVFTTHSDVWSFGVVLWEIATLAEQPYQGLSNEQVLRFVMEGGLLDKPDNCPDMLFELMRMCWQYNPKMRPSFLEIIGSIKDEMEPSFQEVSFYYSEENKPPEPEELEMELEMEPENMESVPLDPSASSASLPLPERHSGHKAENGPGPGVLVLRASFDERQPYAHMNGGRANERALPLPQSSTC
UniProt P08113, residues 22-802: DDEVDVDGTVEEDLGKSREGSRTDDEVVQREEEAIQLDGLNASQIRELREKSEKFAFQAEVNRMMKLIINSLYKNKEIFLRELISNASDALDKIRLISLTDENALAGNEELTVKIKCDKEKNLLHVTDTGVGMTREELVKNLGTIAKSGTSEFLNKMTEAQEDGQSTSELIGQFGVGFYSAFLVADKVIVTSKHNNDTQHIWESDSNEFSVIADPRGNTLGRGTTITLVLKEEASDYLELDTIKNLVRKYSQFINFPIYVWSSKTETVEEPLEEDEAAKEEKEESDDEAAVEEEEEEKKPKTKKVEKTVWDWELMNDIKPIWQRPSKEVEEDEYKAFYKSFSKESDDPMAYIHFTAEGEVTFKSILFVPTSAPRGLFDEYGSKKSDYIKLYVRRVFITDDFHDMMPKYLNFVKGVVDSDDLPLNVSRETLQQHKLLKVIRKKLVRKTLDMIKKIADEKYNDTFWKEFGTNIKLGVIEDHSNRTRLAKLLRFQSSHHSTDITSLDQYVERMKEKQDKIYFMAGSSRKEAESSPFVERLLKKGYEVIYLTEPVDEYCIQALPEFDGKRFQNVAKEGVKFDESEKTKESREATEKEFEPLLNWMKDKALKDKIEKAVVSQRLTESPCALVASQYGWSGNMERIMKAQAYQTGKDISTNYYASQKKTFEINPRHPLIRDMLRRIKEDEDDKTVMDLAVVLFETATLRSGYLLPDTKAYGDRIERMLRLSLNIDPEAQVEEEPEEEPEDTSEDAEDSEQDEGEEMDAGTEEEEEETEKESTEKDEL

For assay [2], the target named is glucose-regulated protein 94 (GRP94) (mouse (endogenous in βTC3)) (UniProt P08113). The assay is described as above.

No constants are given. Whether binding was seen depends on the method and setting. In cells and extracts the contact can be indirect. Some binding calls cover weakened binding; strength is not graded here.

For the substance “glucose-regulated protein 94 (GRP94) (from UniProt P08113 22-802)”, the binding entry in assay [1] is given as “binds”.

For “insulin-like growth factor-1 receptor (IGF-1R) (from UniProt Q60751 31-1373)”, the binding entry in assay [2] is “binds”.

The values above are taken from article PMC11137047.
